# Measured values published in PMC10599630.
# By UniProt entry, the sequences of proteins in these tests, tags left out. Where a name states a change or a piece, a line headed by the entry shows the natural chain unless it says otherwise. Chains listed by the source or under a name are the forms on record and can include a tag or linker. Residues count along the entry.
# IL-12α (no tag named, Fig. 2E) (P29459, residues 23-219): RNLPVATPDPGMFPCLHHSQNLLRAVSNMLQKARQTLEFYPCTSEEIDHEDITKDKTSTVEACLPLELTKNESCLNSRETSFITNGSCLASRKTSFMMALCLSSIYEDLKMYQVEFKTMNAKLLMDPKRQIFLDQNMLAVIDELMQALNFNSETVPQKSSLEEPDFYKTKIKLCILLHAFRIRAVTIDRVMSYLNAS
# IL-12α^C96S (P29459, form named): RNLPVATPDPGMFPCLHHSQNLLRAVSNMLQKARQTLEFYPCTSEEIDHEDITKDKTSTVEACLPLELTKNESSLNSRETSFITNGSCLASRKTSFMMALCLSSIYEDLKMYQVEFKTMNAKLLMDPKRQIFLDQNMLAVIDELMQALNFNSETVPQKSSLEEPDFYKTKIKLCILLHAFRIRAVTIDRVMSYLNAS
# These are yes or no findings as the source states them, for the method shown. For some assays here: Binding seen in cells or lysates may run through a third protein. Some entries that bind do so weakly or less than the wild type. For some assays here: Tags and fused reporters may be left off the sequences shown.
# How the values were obtained:
# EBI3-HA (human) = target: T1, EBI3-HA (human) (UniProt Q14213); assay: co-IP; cell medium of HEK293T cells co-expressing both subunits, precleared with Protein A/G agarose; anti-FLAG M2 or anti-HA magnetic beads, 2 hours at 4°C; washes with 400 mM NaCl, 0.5% NP-40, 0.5% DOC; in Fig. 2E two consecutive HA-IPs
# T1 sequence: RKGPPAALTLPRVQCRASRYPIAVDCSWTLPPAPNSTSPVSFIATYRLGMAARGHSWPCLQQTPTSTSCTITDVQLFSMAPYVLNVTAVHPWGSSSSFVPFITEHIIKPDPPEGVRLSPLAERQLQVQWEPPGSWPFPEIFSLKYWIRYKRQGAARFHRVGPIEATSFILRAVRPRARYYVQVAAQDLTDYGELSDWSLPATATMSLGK
# IL-12α^C96S (human) = IL-12α^C96S (human) (UniProt P29459); assay: AUC; sedimentation velocity, 10 μM of each protein alone or the equimolar incubated proteins in PBS pH 7.4, 42,000 rpm, 20°C, absorbance at 235 nm, c(s) analysis; both purified
Substance,binding (EBI3-HA (human)),binding (IL-12α^C96S (human))
"IL-12α (no tag named, Fig. 2E) (from UniProt P29459 23-219)",binds weakly,–
IL-12α^C96S (from UniProt P29459 23-219),–,no binding (tested: 10 μM)
